Percent effect of library compounds

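Whole-cell growth test on Mycobacterium tuberculosis, read after 4 days in a medium based on cholesterol and the lipid DPPC; the read-out is not stated. Concentration: 50 µM. Higher reads as more growth inhibition (inferred: compounds with an IC50 in retests scored well above the rest). Size under these conditions: about 69,000 compounds, about 370 of them at 50% or above in at least one test.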

Values are the deposited “Percent Effect”, in %.
The controls that fix the scale are not given in the record; negative values are as filed.
Compounds were drawn at random from those tested, without regard to their results.
Two or more numbers in one place are separate tests of the same structure; such repeats can differ widely.

Compound | effect
Cc1cc(Br)ccc1NCC(=O)Nc1cc(C(C)(C)C)no1 | -6.669
c1ccc2oc(N3CCn4c(nnc4C4CC4)C3)nc2c1 | -22.29
Cc1noc(C)c1-c1cc(C2CCNCC2)ccn1 | 8.627
CN(Cc1c(F)cccc1Cl)C(=O)c1cnn(CCN2CCOCC2)c1 | 0.9317
Cc1cc(C(=O)N2CCn3nc(C(=O)NC4CC4)cc3C2)nc(C)n1 | -10.65
O=C(O)C(F)(F)F.O=C(O)C(F)(F)F.[H][C@@]12OCCC[C@]1([H])N(Cc1cccc(C)n1)C[C@@H]2NS(C)(=O)=O | 6.205
CCC/N=c1/c(NC(=O)NCCOC)c(O)oc2ccccc12 | -28.59
[H][C@@]12C[C@@H](c3nnc(C)[nH]3)O[C@]1([H])CN(C(=O)c1cc(C)nn1CC)C2 | -15.16
COCCNC(=O)CSCc1nc(O)c2cc(C(C)C)sc2n1 | 2.199 & -6.902
Cn1nc(Cn2ccnc2)c2c1CN(Cc1ccoc1)C2.O=C(O)C(F)(F)F.O=C(O)C(F)(F)F | -23.2
Cc1csc(Nc2cc(C3CCCCN3C)nc(C)n2)n1 (stereo not given) | -16.87
NC(=O)CCCNC(=O)Cc1csc(Cc2ccccn2)n1 | -26.53
Cc1ccccc1C1(CNC(=O)CCN2C(=O)CCC2=O)CC1 | 10.05
COc1ncccc1C(=O)NC1CCOc2ccccc21 (stereo not given) | -4.132
Cc1ncccc1CNCC1CCCN1c1cccnn1 (stereo not given) | -8.667
Cc1cc(N2CCC(NC(=O)CCC3CCCO3)CC2)nc(C)n1 (stereo not given) | 4.187
CCN1CCc2c(c(COC)nn2C)C1 | 0.0936
COCCC(=O)N1CCN(CCN(C)C)c2ncccc2C1 | -32.47
CCN1CCOCC2(CCCN(C(=O)c3ccncc3F)C2)C1.O=C(O)C(F)(F)F (stereo not given) | -9.057 & -6.559
Fc1ccc2c(C3=CCN(Cc4nnc(C5CCC5)o4)CC3)c[nH]c2c1 | 18.7
CC(C)c1ocnc1C(=O)N1CCC(=O)Nc2cccnc21 | -2.488
CC(C)c1ncc2c(n1)CN(Cc1nc3c(F)cccc3[nH]1)CC2 | 2.009
O=C(O)C(F)(F)F.O=C(O)C(F)(F)F.[H][C@@]12COC[C@@H](C(=O)N3CCCCO3)[C@]1([H])CN(Cc1cnn(C)c1)C2 | 7.545
CN(CCN1CCOCC1)C(=O)CCCc1ccccc1 | 19.67
[H][C@]12CC[C@]([H])(CN(C(=O)Nc3cccc4ccccc34)C1)N(C)C2=O | 4.021
CCSc1cc(C(=O)NCC(C)(C)N(C)C)ccn1 | -8.904
CN1CC2(COCCN(C(=O)c3ccco3)C2)OCC1=O (stereo not given) | -5.215
CN1CC2(CCCN(Cc3nnc(-c4cccc(F)c4)o3)C2)OC1=O (stereo not given) | -9.552
Cc1cc(C)nc(-n2nc(C)c3c2NC(=O)CSC3c2cnn(C)c2)n1 (stereo not given) | -5.031
Cc1oc(NC(=O)C(C)N2CCN(C(C)(C)CO)CC2)c(C#N)c1C (stereo not given) | 15.28
C=C/C=c1\c(=C/C)oc2c(NCc3ccccc3)nc(CC)nc12 | 58.86
COCc1csc(NC(=O)NCc2ccc(C)s2)n1 | 0.8826
Cc1cc(C(=O)N2CCc3nc(C4CCCN4)ncc3C2)cs1.Cl (stereo not given) | -8.177
CCN(CC)C1(Cc2cc(-c3ccccn3)on2)COC1 | -9.856
Cc1nn(-c2ccccn2)c(C)c1[C@@H]1C=C[C@@H](NC(=O)CCC(=O)O)C1 | 12.58
CN(CC1CC1)C(=O)CN(Cc1cccc(O)c1)C1CCC(O)CC1 (stereo not given) | 16.74
CNc1snc(C)c1C(=O)N1CCCC(n2cc(C)cn2)C1 (stereo not given) | 2.393
[H][C@@]12CCCN1C[C@@H](Cc1ccccc1)N(Cc1cnn(C=C)c1C)C2 | -1.428
CCNC(=O)NCc1ccnc(N(C)C)n1 | 0.4739
CC[C@]12CN3C[C@](C)(CN(C1)C3c1[nH]c(=O)[nH]c(=O)c1C)C2=O (stereo not given in full) | -15.01
CC(Cn1cc(Br)cn1)C(=O)Nc1ccc(Cl)cn1 (stereo not given) | 30
CC(C)c1nc2c(n1C)CCN(CCc1ccccn1)C2 | 9.415
O=C(NCC1CC1)Nc1cnc2ccc(F)cc2c1O | -6.773
CC(=O)N1CCCN(C(=O)c2ccc(Sc3ccccn3)cc2)CC1 | -4.557
[H][C@]12CC[C@]([H])(CN(S(C)(=O)=O)C1)N(CCC(=O)NCc1ccco1)C2 | -8.182
Cc1cc(N2CCC(O)(CN(C)C(=O)CCN)CC2)c2cnccc2n1 | 1.515 & 3.744
Cc1ccc2c(c1)C(=O)NCC1(CCN(C(=O)c3sccc3C)CC1)O2 | -13.69
Cc1cc(CC(C)NC2CCSCC2)[nH]n1 (stereo not given) | 20.29
O=C(O)C(F)(F)F.[H][C@]12CCN(C(=O)c3cc[nH]n3)CC[C@@]1([H])S(=O)(=O)N(Cc1ccncc1)C2 | 5.587
CC(CO)CSc1ncnc2[nH]ncc12 (stereo not given) | -9.407
COCCCNC(=O)Nc1ccc(F)c(C(N)=O)c1 | -14.59
Cc1c(C(=O)N[C@@H]2CC[C@@H](N3CCCC3)[C@@H]2O)[nH]c2ccc(F)cc12 | 16.49
CCc1nnc2n1CCN(C(=O)c1cc(Cl)c[nH]1)C2 | 5.372
O=C(O)CCCC(=O)Nc1cnn(COc2ccc(F)cc2Cl)c1 | -40.22
O=S(=O)(CCNCc1ccc2c(c1)CCO2)N1CCOCC1 | 10.21
CCCNC(=O)CCNC(=O)N1CCC(=Cc2ccccc2)CC1 | -3.118
CC(NCc1cn(CCC(N)=O)c2ccccc12)c1nncn1C (stereo not given) | -22.9
CSCCC(CO)NC(=O)c1ccc2[nH]/c(=N\S(C)(=O)=O)sc2c1 (stereo not given) | -4.679
COCCO[C@H]1CCN(c2ccc(C)nn2)[C@H]1Cc1cnn(C)c1 | 2.395 & -12.2
Cc1cc(C)n(CC2CN(CC(=O)Nc3c(C)n[nH]c3C)CCO2)n1 (stereo not given) | -9.07
O=C1CCc2cc(S(=O)(=O)NCc3cc4n(n3)CCCNC4)ccc2N1 | 15.78
CN(C)C(=O)CN1CCCC(Cc2ccc(N3CCCC3)nn2)C1 (stereo not given) | -16.54
O=C(N[C@@H]1CN(Cc2ccc3[nH]ccc3c2)C[C@H]1O)c1cscn1 | -20.19
Cc1ccc(NC(=O)Nc2c(O)oc3ccccc3c2=O)cc1C | -13.25

Some entries from above, unchanged:

- O=C(O)CCCC(=O)Nc1cnn(COc2ccc(F)cc2Cl)c1 : -40.22%
- Cc1cc(N2CCC(O)(CN(C)C(=O)CCN)CC2)c2cnccc2n1 : 1.515% & 3.744%
- O=C(N[C@@H]1CN(Cc2ccc3[nH]ccc3c2)C[C@H]1O)c1cscn1 : -20.19%

From ChEMBL document CHEMBL3988442, “University of Dundee, Small-Polar-MMV Screening Library” (2021).